The text below walks through data of article PMC11559043.

Protein sequences, listed by entry. Tags and fused reporters are not part of them.
UniProt Q99496: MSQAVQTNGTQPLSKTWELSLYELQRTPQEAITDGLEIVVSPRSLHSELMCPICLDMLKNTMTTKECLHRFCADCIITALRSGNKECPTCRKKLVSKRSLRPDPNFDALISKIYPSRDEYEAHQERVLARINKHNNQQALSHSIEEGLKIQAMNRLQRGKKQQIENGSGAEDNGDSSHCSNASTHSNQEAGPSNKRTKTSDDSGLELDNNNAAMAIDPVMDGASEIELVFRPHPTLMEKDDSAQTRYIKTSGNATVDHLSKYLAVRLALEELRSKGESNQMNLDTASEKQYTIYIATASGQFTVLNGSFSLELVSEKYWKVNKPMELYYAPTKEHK
UniProt P61289: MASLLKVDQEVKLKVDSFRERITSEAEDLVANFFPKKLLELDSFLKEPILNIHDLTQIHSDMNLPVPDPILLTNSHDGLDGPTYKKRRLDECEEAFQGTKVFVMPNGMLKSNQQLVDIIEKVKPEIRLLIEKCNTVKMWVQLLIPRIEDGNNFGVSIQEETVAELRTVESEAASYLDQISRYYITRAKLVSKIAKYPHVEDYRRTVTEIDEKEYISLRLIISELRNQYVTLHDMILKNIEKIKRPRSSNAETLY

These are yes or no findings as the source states them, for the method shown. Binding seen in cells or lysates may run through a third protein. Some entries that bind do so weakly or less than the wild type.

Assay [1] has as its target N-terminal HA-tagged RNF2 (human) (UniProt Q99496). The assay is described as follows: co-IP; FLAG-PA28γ expressed in 293T cells together with HA-RNF1 or HA-RNF2; harvested 48 h post-transfection; immunoprecipitates with anti-HA or anti-FLAG antibodies blotted with anti-FLAG or anti-HA.
In assay [2] the target is N-terminal FLAG-tagged PA28γ (UniProt P61289). Described as above.

With “N-terminal FLAG-tagged PA28γ (from UniProt P61289 1-254)”, the binding entry in assay [1] is on record as “binds”.

As to “N-terminal HA-tagged RNF2 (from UniProt Q99496 1-336)”, the binding result in assay [2] is “binds”.
